The source of these data is paper PMC11126606.

By UniProt entry, the sequences of proteins in these tests, tags left out.
UniProt P46935: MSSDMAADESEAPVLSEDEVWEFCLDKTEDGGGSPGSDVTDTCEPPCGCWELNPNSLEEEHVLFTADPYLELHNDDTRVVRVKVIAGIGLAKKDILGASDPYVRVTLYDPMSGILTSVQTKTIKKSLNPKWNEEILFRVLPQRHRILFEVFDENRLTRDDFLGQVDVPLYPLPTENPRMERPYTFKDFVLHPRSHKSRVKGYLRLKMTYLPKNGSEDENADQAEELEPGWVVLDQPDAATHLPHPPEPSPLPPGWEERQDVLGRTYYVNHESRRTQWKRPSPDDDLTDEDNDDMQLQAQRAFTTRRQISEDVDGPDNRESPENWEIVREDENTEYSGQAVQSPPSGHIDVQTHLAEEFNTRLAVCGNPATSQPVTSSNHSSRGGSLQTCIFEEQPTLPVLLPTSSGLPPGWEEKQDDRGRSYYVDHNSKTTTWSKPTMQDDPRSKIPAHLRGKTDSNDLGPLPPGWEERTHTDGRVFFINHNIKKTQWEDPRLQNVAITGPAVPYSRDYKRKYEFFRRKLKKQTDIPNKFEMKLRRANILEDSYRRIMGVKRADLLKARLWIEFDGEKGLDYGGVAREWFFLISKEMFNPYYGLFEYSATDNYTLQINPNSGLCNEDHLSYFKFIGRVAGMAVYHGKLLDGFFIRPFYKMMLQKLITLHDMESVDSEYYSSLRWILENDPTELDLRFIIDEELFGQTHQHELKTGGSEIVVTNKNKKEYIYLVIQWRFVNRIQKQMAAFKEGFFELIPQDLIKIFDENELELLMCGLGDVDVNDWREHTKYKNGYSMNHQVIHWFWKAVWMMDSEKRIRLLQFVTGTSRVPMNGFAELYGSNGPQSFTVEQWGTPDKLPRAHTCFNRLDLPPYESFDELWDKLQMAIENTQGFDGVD
UniProt Q8R4B8: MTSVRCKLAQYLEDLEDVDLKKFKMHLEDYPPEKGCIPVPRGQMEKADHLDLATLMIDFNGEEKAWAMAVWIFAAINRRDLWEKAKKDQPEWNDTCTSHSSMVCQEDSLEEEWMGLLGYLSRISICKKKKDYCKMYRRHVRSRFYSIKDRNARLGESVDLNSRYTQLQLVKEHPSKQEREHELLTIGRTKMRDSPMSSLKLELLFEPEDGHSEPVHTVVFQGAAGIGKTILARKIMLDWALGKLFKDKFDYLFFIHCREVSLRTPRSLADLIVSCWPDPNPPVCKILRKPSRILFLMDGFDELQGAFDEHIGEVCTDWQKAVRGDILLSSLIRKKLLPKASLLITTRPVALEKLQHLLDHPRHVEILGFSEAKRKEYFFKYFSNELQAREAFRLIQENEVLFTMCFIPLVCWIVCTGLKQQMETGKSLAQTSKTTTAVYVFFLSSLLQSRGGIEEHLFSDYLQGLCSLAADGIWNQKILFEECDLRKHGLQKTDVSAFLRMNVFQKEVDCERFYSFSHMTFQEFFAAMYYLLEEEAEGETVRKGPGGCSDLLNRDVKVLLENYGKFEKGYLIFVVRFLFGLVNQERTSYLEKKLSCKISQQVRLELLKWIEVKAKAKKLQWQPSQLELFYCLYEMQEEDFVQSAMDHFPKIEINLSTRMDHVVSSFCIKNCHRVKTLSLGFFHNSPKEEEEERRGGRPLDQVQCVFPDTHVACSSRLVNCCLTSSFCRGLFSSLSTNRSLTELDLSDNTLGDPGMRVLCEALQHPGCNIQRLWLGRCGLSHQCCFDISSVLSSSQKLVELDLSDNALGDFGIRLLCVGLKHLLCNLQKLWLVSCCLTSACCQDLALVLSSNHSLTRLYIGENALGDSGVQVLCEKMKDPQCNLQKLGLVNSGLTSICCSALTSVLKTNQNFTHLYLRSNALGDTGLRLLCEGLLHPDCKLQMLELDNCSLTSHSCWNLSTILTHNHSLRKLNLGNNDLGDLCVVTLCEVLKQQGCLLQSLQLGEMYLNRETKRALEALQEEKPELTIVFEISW

T1: Myc-tagged murine Yod1 (mouse) (UniProt Q8CB27)
T1 sequence: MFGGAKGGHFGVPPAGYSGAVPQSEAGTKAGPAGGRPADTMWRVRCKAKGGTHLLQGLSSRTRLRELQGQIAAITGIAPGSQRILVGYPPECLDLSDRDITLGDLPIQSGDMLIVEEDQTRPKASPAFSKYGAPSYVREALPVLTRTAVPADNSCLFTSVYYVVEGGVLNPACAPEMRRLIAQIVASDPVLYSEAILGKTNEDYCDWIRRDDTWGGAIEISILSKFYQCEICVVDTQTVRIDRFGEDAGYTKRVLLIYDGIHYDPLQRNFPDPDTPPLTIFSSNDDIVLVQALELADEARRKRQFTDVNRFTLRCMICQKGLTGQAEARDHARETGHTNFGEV

B1: TRIM33, endogenous mouse (protein, UniProt Q99PP7 1-1142)
chain: MAENKGGGEAESGGGGSGSAPVTAGAAGPTAQEAEPPLAAVLVEEEEEEGGRAGAEGGAAGPDDGGVAAASSSSAPAASVPAASVGSAVPGGAASTPAPAAAPAPAPAPAPAPAPAPAPAPAPGSSSGPPLGPPASLLDTCAVCQQSLQSRREAEPKLLPCLHSFCLRCLPEPERQLSVPIPGGSNGDVQQVGVIRCPVCRQECRQIDLVDNYFVKDTSEAPSSSDEKSEQVCTSCEDNASAVGFCVECGEWLCKTCIEAHQRVKFTKDHLIRKKEDVSESVGTSGQRPVFCPVHKQEQLKLFCETCDRLTCRDCQLLEHKEHRYQFLEEAFQNQKGAIENLLAKLLEKKNYVHFAATQVQNRIKEVNETNKRVEQEIKVAIFTLINEINKKGKSLLQQLENVTKERQMKLLQQQNDITGLSRQVKHVMNFTNWAIASGSSTALLYSKRLITFQLRHILKARCDPVPAANGAIRFHCDPTFWAKNVVNLGNLVIESKPAPGYTPNVVVGQVPPGTNHISKTPGQINLAQLRLQHMQQQVYAQKHQQLQQMRLQQPPAPIPTTTATTQQHPRQAAPQMLQQQPPRLISVQTMQRGNMNCGAFQAHQMRLAQNAARIPGIPRHSAPQYSMMQPHLQRQHSNPGHAGPFPVVSAHNPINPTSPTTATMANANRGPTSPSVTAIELIPSVTNPENLPSLPDIPPIQLEDAGSSSLDNLLSRYISGSHLPPQPTSTMNPSPGPSALSPGSSGLSNSHTPVRPPSTSSTGSRGSCGSSGRTAEKSAHSFKSDQVKVKQEPGTEEEICSFSGAVKQEKTEDGRRSACMLSSPESSLTPPLSTNLHLESELDTLTGLENHVKTEPTDISESCKQSGLSNLVNGKSPIRNLMHRSARIGGDGNSKDDDPNEDWCAVCQNGGDLLCCEKCPKVFHLTCHVPTLLSFPSGDWICTFCRDIGKPEVEYDCDNMQHSKKGKTAQGLSPVDQRKCERLLLYLYCHELSIEFQEPVPVSIPNYYKIIKKPMDLSTVKKKLQKKHSQHYQIPDDFVADVRLIFKNCERFNEMMKVVQVYADTQEINLKGDSEVAKAGKAVALYFEDKLSEIYSDRTFTPLPEFEQDEDDGEVTEDSDEDFIQPRRKRLKSDERPVHIK

No constants are given. Whether binding was seen depends on the method and setting. In cells and extracts the contact can be indirect. These calls come from enrichment with a bait or labelling near it, and not all partners need be listed. Tags and fused reporters may be left off the sequences shown.

The experiment deals with T1, Myc-tagged murine Yod1 (mouse). Description: affinity purification with mass spectrometry; Myc-tagged murine Yod1 overexpressed in mouse PMs, immunoprecipitation and mass spectrometry.
For “neural precursor cell expressed developmentally downregulated protein 4 (NEDD4), endogenous mouse (from UniProt P46935 1-887)”, the binding result was “binds”.
As for “NLR-family pyrin domain-containing-3 (NLRP3), endogenous mouse (from UniProt Q8R4B8 1-1033)”, the binding result is listed as “binds”.
In the case of B1, the binding result is “binds”.
